Laboratory results reported in patent US20220073637A1.
These are yes or no findings as the source states them, for the method shown. Some binding calls cover weakened binding; strength is not graded here.

Tests used:
human CD6 (human) [1] = biological target: T1, human CD6 (human) (UniProt P30203); assay: ELISA on human CD6
T1 sequence (looked up): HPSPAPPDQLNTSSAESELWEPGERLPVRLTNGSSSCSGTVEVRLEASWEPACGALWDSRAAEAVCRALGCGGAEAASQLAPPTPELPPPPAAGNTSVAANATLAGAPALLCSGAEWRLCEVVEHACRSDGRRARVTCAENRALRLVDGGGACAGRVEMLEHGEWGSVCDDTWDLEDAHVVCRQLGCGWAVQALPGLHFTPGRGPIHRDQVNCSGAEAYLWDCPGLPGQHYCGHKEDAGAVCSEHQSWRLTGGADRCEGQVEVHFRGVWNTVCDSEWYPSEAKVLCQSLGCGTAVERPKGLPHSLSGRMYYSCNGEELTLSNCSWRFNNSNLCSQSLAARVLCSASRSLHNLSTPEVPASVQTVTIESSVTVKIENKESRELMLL

human CD6 (human) [2] = biological target: T1, human CD6 (human); assay: flow cytometry on isolated Tregs from a healthy donor, co-stained with anti-CD6 (Commercial) (x-axis)

B1: meditope-enabled anti-CD6 mAb (antibody, IgG1, V domains shown)
VH: EVQLVESGGGLVKPGGSLKLSCAASGFKFSRYAMSWVRQAPGKRLEWVATISSGGSYIYYPDSVKGRFTISRDNVKNTLYLQMSSLRSEDTAIYYCARRDYDLDYFDSWGQGTLVTVSS
VL: DIQMTQSPILLSASVGDRVTITCKASRDIRSYLTWYQQRTNGSPRTLIYYATSLADGVPSRFSGSGSGQDYSLTISSLESDDIADYYCLQHGESPFTFGSGTKLEIKR
binding (human CD6 (human) [1]): binds | binding (human CD6 (human) [2]): binds
